The whole screen tested about 350,000 compounds, of which about 220 (0.063%) were called active. The shares of active, inactive and inconclusive entries below differ from those in the screen. The call rests on the fitted dose curve; in most records, active means well fitted activation curve with a large enough effect; inconclusive means small, poorly fitted or top-dose-only effect; inactive means no such curve, though single readings can be large or run the other way. Potencies of inconclusive entries are doubtful fits and often do not repeat.
Assay: qHTS for Activators of Integrin-Mediated Alleviation for Muscular Dystrophy; further: nearly all actives have a fitted effect of over 60% in size;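 on activation: 100% = response of the positive control SU9516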
Details: alpha7betagal myoblasts, beta-gal FDG fluorescence, 48 h; activation: at 38.3 µM (top of the series)
How it was run: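 alpha7betagal+/- myoblasts (passage 13, 250/well) treated 48 h at 37C with compounds at 1:260 dilution of DMSO stock. Lysed, then beta-galactosidase activity read as FDG fluorescence (ex 480/em 540) after 30 min, with pre-read for autofluorescence.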
Potency means the concentration at half of the fitted maximal effect.

| SMILES | Potency | activation |
| --- | --- | --- |
| CCN(Cc1ccccc1)C(=O)C1CCN(C(=O)Nc2ccccc2)CC1 | inconclusive: 1.58 µM [activator, single point] |  |
| O=[N+]([O-])c1cccc(/C=N/Nc2nc(N3CCCCC3)nc(N3CCCCC3)n2)c1 | inconclusive: 2.82 µM [activator, single point] |  |
| N#Cc1cccc(NC(=O)Cc2ccsc2)c1 | inconclusive: 8.91 µM [activator, single point] |  |
| O=C(O)CCCCN1C(=O)/C(=C\c2ccc(OCc3ccccc3)c(OCc3ccccc3)c2)SC1=S | inconclusive: 3.55 µM [activator, single point] |  |
| CCOC(=O)C1(Cc2cccc(Cl)c2)CCCN(C(=O)C2CC2)C1 (stereo not drawn) | inconclusive: 3.16 µM [activator, single point] |  |
| C/C=C/c1ccc(OCC(O)CNCCc2ccc(OC)cc2)c(OC)c1 (stereo not drawn) | inconclusive: 5.01 µM [activator, single point] |  |
| CCC(=O)Nc1cc(-c2cc3ccccc3oc2=O)ccc1OC | inconclusive: 1.12 µM [activator, partial curve, poor fit] |  |
| CSc1ccccc1NC(=S)Nc1cc(C)cc(C)c1 |  | inactive: 3.95% |
| CC(C)CNC(=O)Nc1ccc(F)c(Cl)c1 | inconclusive: 11.2 µM [activator, partial curve, poor fit] |  |
| Cc1ccc(C2CCN(C(=S)Nc3cccc(C)c3)C2)cc1 (stereo not drawn) |  | inactive: -33.2% |
| CCCC(=O)N(Cc1cc(=O)[nH]c2ccccc12)c1ccccc1 | inconclusive: 5.01 µM [activator, single point] |  |
| Cc1ccc(S(=O)(=O)ON=C2CCN(S(=O)(=O)c3ccccc3)CC2)cc1 |  | inactive: 60.6% |
| COc1ccc(NC(=O)/C(N=Nc2cc(S(=O)(=O)Nc3ccc(OC)cc3)ccc2OC)=C(\C)O)cc1 | inconclusive: 10 µM [activator, partial curve, poor fit] |  |
| CC(C)N(Cc1ccccc1)C(=O)COC(=O)c1ccc(O)cc1 | inconclusive: 1.12 µM [activator, full curve, poor fit] |  |
| O=C(O)c1ccc(N/N=C/c2cc3cc4c(cc3nc2Cl)OCCO4)cc1 |  | inactive: 12% |
| O=C(Nc1cccc(S(=O)(=O)N2CCCCC2)c1)c1ccccc1NS(=O)(=O)c1ccc(F)cc1 | inconclusive: 28.2 µM [activator, single point] |  |
| Cc1ccc(-c2c3c(nc4sc(C(N)=O)c(N)c24)CCC3)cc1 | inconclusive: 5.01 µM [activator, single point] |  |
| NC(=O)C1CCN(C(=O)C2CC(=O)N(c3ccc4c(c3)OCCO4)C2)CC1 (stereo not drawn) | inconclusive: 2 µM [activator, partial curve, poor fit] |  |
| CCn1c(CC(=O)Nc2ccccc2F)nnc1SCC(=O)Nc1nncs1 | inconclusive: 28.2 µM [activator, single point] |  |
| Cn1c(CNC(=O)CNC(=O)Cc2ccc(Cl)cc2)cc(=O)n(C)c1=O | inconclusive: 10 µM [activator, single point] |  |
| Cc1ccc(C)c(C(C)NC(=O)c2ccncc2)c1 (stereo not drawn) |  | inactive: 22.9% |
| COCCNc1oc(/C=C/c2ccccc2OC)nc1S(=O)(=O)c1ccccc1 | inconclusive: 10 µM [activator, partial curve, poor fit] |  |
| Cc1cccc(C(=O)NNC(=O)C23CC4CC(CC(C4)C2)C3)c1O |  | inactive: 0% |

Copied from the list:
Value for `O=[N+]([O-])c1cccc(/C=N/Nc2nc(N3CCCCC3)nc(N3CCCCC3)n2)c1` under Potency: inconclusive: 2.82 µM [activator, single point]
Value for `CCCC(=O)N(Cc1cc(=O)[nH]c2ccccc12)c1ccccc1` under Potency: inconclusive: 5.01 µM [activator, single point]
Value for `Cc1ccc(S(=O)(=O)ON=C2CCN(S(=O)(=O)c3ccccc3)CC2)cc1` under activation: inactive: 60.6%
Value for `Cc1ccc(-c2c3c(nc4sc(C(N)=O)c(N)c24)CCC3)cc1` under Potency: inconclusive: 5.01 µM [activator, single point]
Value for `CCC(=O)Nc1cc(-c2cc3ccccc3oc2=O)ccc1OC` under Potency: inconclusive: 1.12 µM [activator, partial curve, poor fit]

The results go on:

| SMILES | Potency | activation |
| --- | --- | --- |
| O=C(NC1(O)C(=O)c2ccccc2C1=O)c1c(Cl)cccc1Cl | inconclusive: 15.8 µM [activator, single point] |  |
| CC(=O)Nc1ccc(NC(=O)Cc2ccc(-c3ccccc3)cc2)cc1 | inconclusive: 10 µM [activator, partial curve, poor fit] |  |
| CNc1ccccc1C(C)(C)c1ccn[nH]1 | inconclusive: 2.82 µM [activator, single point] |  |
| Cc1cccc(NC(=O)c2ccc(COc3ccc(Cl)cc3Cl)o2)n1 | inconclusive: 0.316 µM [activator, full curve, poor fit] |  |
| COc1ccc(CCC(=O)NNC(=S)NCc2ccc(F)cc2)cc1 |  | inactive: 16.9% |
| COC(OC)c1ccnc(-c2ccc(OC(=O)c3ccccc3)cc2)n1 | inconclusive: 15.8 µM [activator, single point] |  |
| CSc1cccc(NC(=O)CC2Oc3ccccc3NC2=O)c1 (stereo not drawn) | inconclusive: 5.01 µM [activator, single point] |  |
| Cc1cc(NC(=O)CSc2ccc3c(c2)OCCO3)no1 | inconclusive: 7.08 µM [activator, partial curve, poor fit] |  |
| O=C(N/C(=C\c1cccc([N+](=O)[O-])c1)C(=O)N1CCOCC1)c1ccco1 | inconclusive: 10 µM [activator, partial curve, poor fit] |  |
| CCN(CC)C(=O)C1(P(=O)(c2ccccc2)c2ccccc2)CCC1 | inconclusive: 1.41 µM [activator, single point] |  |
| CC1CC(C)C[N+](=C2C=C(N3CCCC3)CC(C)(C)C2)C1 (stereo not drawn) |  | inconclusive: -59.1% [activator] |
| COc1ccc(CNC(=O)CSc2nc3cccnc3s2)cc1 | inconclusive: 5.01 µM [activator, single point] |  |
| CNC(=S)N(Cc1ccccc1)Cc1cccnc1 | inconclusive: 5.01 µM [activator, full curve, poor fit] |  |
| COC(=O)c1ccc(NC(=O)C(C)Oc2ccccc2)cc1 (stereo not drawn) | inconclusive: 5.62 µM [activator, single point] |  |
| C=C(C)CN1C(=O)C2(OCCO2)c2cc(Br)ccc21 |  | inactive: 4.38% |
| NC(=O)C1CCN(C(=O)c2cc(-c3ccc(Cl)s3)nc3ccccc23)CC1 |  | inactive: 1.8% |
| N#CCCN(/N=C/c1cccnc1)C1=NS(=O)(=O)c2ccccc21 | inconclusive: 5.01 µM [activator, single point] |  |
| CC1CCCCC1NC(=O)COC(=O)c1ccc2ccccc2n1 (stereo not drawn) | inconclusive: 5.01 µM [activator, single point] |  |
| COc1ccc(N2C(=NC(=O)C3CCCCC3)SC3CS(=O)(=O)CC32)cc1Cl (stereo not drawn) | inconclusive: 2.82 µM [activator, partial curve, poor fit] |  |
| Cc1cccc(NC(=O)c2c([N+](=O)[O-])c(C(C)(C)C)nn2C)c1 | inconclusive: 2.82 µM [activator, single point] |  |
| COc1ccc(S(=O)(=O)NCC2CCCN(C(=O)CNC(C)=O)C2)cc1 (stereo not drawn) | inconclusive: 3.98 µM [activator, single point] |  |
| C=CCn1c(O)c(N=NC(=S)Nc2cccc(OC)c2)c2ccccc21 |  | inactive: -15.4% |
| Cc1n[nH]c2ccc(Br)cc2c1=O |  | inactive: -3.52% |

| SMILES | Potency | activation |
| --- | --- | --- |
| Cc1ccc(S(=O)(=O)NC(C)C(c2cccs2)N2CCN(C)CC2)cc1 (stereo not drawn) | inconclusive: 0.891 µM [activator, full curve, poor fit] |  |
| CCN1CCN(C(=O)c2cc(=O)c3cc(C)ccc3o2)CC1 | inconclusive: 28.2 µM [activator, single point] |  |
| CCN1C(=O)C(=O)N(CC(=O)N(C)CC(=O)Nc2ccccc2C(F)(F)F)C1=O | inconclusive: 10 µM [activator, partial curve, poor fit] |  |
| CC(C)n1c(=S)[nH]c2cc(Cl)ccc21 | inconclusive: 3.55 µM [activator, single point] |  |
| CC(NC(=O)C1CCN(S(=O)(=O)c2cccc3nonc23)CC1)c1ccccc1 (stereo not drawn) | inconclusive: 12.6 µM [activator, single point] |  |
| Nc1nnnn1/N=C/c1cccc(Br)c1 | inconclusive: 5.01 µM [activator, single point] |  |
| CC(C)=C[C@@H]1C[C@H](C)[C@H]2CC[C@H](C)c3c(O)c(O)c(C)c1c32 |  | inactive: 0% |
| CC(=O)Nc1ccc(S(=O)(=O)N2CCN(S(=O)(=O)c3ccc(F)c(F)c3F)CC2)cc1 |  | inconclusive: -48.8% [activator] |
| OC1CCN(CC(O)C(F)(F)F)CC1 (stereo not drawn) | inconclusive: 28.2 µM [activator, single point] |  |
| COc1ccc(NC(=O)c2ccc(N3CCOCC3)nc2)cc1 | inconclusive: 1.58 µM [activator, single point] |  |
| NS(=O)(=O)c1ccc(CCNC(=O)CN2CCN(S(=O)(=O)c3ccccc3F)CC2)cc1 |  | inactive: -16.8% |
| CC(CN1C(C)CCCC1C)OC(=O)c1ccccc1Cl (stereo not drawn) |  | inactive: -1.84% |
| Cn1cnc2cc(NCc3cccs3)ccc21 | inconclusive: 4.47 µM [activator, single point] |  |
| COc1cccc(CN2CCN(Cc3cccc(Oc4ccccc4)c3)CC2)c1OC |  | inactive: -14.2% |
| O=[N+]([O-])c1ccc2c(c1)nc1n2CCCCC1 |  | inconclusive: -48.3% [activator] |
| Cc1nn(C(=O)CCCC(=O)NCc2ccccc2)c2ccccc12 | inconclusive: 3.55 µM [activator, full curve, poor fit] |  |
| COc1ccc(-c2cc(C#N)nc(N3CCN(C)CC3)n2)cc1 |  | inactive: -28.2% |
| Cc1ccc(NC(=O)C2CCCO2)c(Br)c1 (stereo not drawn) | inconclusive: 3.16 µM [activator, single point] |  |
| C#CC(=O)N(c1ccc(OC)c(OC)c1)C(C(=O)NC1CCCC1)c1cccs1 (stereo not drawn) |  | inconclusive: -55.4% [activator] |
| Cc1cccc(NC(=O)CSCc2cc(=O)n3ccsc3n2)c1C | inconclusive: 1 µM [activator, partial curve, poor fit] |  |
| CC(=O)Nc1ccc(S(=O)(=O)NCCCCNS(=O)(=O)c2ccc(NC(C)=O)cc2)cc1 | inconclusive: 25.1 µM [activator, partial curve, poor fit] |  |
| COc1cccc(-n2nc(C(=O)N3CCN(Cc4ccccc4)CC3)c3ccccc3c2=O)c1 | inconclusive: 1.41 µM [activator, single point] |  |

Reference: PubChem BioAssay AID624291 (National Center for Advancing Translational Sciences (NCATS), 2012)
